Assay results: paper PMC4891710 (Scientific Reports, 2016)

Assay: general procedure: Fmoc solid-phase peptide synthesis; Rink amide resin; HBTU/HOBt/DIPEA
Settings: whole synthesis, analytical rpHPLC (Vydac C18), scale 0.25 mmol

## CH3-CONH-(XFEGYDNX)-CONH2 where X=O-allyl serine
  final HPLC purity: > 95%
